Laboratory results published in the supplement of paper PMC10849652.
This is one part of the list.

Protein sequences, listed by entry. Tags and fused reporters are not part of them. Lines headed by an entry give the natural chain unless they say otherwise; changes in a name come on top.
UniProt Q8TBQ9: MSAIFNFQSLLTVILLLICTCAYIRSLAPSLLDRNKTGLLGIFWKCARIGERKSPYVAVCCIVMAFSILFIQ
UniProt Q9NZR1: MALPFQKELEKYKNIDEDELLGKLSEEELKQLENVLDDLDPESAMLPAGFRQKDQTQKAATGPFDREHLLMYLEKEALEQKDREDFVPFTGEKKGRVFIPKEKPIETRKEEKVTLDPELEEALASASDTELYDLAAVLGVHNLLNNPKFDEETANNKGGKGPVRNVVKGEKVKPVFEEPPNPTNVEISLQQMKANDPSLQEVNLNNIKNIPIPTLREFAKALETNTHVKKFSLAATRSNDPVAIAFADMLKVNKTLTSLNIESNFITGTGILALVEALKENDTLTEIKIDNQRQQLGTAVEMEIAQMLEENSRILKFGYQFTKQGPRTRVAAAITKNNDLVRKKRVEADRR
UniProt Q7Z7H5: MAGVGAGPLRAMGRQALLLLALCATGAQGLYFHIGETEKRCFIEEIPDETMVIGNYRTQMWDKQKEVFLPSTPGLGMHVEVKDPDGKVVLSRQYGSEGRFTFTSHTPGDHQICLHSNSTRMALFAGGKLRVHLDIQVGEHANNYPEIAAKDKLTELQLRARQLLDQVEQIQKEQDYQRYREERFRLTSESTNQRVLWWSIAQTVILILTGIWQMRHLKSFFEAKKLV
UniProt Q9P0S9: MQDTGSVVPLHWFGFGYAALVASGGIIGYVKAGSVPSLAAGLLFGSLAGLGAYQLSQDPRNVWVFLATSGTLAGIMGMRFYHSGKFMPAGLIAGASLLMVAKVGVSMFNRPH
UniProt Q9BVC6: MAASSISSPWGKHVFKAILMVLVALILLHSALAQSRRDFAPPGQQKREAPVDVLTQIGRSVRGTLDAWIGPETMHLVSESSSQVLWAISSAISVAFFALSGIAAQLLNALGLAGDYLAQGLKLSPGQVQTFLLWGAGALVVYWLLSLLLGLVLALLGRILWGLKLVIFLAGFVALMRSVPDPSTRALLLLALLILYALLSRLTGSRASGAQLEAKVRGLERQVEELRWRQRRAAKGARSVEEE
UniProt Q96B77: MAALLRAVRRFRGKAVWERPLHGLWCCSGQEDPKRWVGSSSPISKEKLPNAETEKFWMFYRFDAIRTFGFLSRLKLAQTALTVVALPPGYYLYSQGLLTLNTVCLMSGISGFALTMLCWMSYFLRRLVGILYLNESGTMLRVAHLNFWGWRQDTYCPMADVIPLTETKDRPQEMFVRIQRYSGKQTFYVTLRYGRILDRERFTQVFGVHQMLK
UniProt Q96I45: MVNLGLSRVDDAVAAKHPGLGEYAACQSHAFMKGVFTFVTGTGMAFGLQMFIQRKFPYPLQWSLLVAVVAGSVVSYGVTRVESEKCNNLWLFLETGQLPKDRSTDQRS
UniProt Q6PI78: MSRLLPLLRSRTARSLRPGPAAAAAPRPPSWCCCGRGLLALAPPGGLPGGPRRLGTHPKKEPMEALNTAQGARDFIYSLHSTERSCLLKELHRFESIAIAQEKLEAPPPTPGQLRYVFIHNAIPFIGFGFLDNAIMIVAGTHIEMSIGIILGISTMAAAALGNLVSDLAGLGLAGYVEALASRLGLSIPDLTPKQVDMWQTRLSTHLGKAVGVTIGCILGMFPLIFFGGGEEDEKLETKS
UniProt Q9Y490: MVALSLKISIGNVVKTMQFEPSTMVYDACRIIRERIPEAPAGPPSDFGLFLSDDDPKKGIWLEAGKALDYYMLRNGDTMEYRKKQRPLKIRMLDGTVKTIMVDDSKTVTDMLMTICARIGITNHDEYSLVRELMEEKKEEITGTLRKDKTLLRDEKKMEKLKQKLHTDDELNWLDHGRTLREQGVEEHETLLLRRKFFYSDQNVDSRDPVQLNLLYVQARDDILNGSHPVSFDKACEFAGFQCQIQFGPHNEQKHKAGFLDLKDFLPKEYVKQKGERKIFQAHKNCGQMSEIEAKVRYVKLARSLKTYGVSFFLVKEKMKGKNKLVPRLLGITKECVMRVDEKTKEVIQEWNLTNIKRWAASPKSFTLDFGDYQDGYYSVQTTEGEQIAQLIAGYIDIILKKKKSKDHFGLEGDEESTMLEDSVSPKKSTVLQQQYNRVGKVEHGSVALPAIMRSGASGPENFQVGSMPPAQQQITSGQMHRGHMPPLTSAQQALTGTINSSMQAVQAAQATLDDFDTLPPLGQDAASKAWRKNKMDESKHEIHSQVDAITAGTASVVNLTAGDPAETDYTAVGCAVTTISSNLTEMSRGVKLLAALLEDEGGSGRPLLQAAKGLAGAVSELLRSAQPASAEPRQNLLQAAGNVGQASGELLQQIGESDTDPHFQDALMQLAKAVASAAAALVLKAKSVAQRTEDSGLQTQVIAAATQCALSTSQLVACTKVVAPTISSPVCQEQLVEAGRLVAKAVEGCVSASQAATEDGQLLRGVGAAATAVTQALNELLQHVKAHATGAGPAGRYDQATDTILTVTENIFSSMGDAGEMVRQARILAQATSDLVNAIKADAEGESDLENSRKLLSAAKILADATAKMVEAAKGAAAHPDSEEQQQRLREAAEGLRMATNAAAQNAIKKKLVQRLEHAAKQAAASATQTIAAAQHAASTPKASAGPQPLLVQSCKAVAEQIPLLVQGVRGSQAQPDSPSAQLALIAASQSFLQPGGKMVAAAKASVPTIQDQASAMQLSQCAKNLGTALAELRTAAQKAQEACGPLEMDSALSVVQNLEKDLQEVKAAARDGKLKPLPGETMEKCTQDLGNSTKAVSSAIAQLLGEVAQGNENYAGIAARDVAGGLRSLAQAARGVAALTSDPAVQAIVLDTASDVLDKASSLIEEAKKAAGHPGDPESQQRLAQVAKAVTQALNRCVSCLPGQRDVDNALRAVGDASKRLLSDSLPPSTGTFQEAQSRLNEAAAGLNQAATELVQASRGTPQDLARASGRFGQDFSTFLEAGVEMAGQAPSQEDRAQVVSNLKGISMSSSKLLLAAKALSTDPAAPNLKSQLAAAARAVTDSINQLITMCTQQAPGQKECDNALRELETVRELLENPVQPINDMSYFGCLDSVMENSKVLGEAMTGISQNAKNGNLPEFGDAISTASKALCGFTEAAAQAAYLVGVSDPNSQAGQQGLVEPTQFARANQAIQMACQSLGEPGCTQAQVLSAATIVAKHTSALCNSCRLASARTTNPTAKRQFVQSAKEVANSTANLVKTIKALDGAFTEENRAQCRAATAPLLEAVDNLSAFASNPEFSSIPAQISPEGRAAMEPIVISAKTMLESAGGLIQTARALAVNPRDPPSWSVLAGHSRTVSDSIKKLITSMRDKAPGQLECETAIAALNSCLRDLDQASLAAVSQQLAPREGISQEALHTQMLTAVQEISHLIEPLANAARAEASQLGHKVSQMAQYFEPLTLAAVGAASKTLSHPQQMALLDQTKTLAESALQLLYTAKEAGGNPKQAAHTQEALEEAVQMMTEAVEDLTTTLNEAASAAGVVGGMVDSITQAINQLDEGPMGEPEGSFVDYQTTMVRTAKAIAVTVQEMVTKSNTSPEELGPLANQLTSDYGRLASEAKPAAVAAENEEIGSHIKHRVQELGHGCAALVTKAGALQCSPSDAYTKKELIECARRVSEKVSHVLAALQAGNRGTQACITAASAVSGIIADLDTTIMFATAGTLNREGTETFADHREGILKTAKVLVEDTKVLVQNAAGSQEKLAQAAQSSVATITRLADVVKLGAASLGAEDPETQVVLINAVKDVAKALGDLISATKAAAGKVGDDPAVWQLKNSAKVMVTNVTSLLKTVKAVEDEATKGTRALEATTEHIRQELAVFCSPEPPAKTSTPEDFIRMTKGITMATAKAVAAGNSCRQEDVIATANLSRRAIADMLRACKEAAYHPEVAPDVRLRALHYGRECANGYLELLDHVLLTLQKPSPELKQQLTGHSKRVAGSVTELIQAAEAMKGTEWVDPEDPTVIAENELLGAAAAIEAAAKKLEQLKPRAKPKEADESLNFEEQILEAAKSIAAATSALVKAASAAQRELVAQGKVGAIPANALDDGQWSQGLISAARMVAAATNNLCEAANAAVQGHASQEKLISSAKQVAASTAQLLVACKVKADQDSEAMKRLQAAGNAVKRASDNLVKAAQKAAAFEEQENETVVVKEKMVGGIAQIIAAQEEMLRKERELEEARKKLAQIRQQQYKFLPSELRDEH
UniProt O14763, whole entry, looked up: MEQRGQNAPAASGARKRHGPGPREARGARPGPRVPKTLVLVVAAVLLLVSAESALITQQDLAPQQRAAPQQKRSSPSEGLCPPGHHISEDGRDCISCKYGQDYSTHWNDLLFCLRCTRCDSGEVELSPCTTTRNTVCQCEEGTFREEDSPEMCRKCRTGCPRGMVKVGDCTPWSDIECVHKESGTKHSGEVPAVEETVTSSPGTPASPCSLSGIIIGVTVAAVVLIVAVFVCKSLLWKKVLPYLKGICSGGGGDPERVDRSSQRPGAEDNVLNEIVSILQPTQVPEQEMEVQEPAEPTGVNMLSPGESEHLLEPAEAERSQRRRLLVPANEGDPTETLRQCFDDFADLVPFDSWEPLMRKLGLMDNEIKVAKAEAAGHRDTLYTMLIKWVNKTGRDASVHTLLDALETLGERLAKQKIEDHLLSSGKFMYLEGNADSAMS
UniProt Q9NX00: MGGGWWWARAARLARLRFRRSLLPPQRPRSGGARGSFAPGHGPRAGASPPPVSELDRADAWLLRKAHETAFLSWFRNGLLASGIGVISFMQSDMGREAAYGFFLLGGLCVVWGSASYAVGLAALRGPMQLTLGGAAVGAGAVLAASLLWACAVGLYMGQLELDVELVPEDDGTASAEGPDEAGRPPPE
UniProt P42167: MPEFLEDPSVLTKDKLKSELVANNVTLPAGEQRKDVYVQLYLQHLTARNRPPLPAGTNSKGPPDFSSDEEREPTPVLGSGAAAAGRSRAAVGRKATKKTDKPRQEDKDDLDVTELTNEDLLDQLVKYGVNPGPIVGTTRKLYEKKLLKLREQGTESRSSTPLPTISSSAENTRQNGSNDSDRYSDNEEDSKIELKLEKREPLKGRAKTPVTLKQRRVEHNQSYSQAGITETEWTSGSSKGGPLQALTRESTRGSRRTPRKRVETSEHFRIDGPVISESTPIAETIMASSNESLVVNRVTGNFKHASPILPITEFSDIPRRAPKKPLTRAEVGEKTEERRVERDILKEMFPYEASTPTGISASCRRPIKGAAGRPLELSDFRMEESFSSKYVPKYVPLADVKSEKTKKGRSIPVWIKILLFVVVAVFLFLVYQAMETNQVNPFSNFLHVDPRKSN
UniProt Q9UM00: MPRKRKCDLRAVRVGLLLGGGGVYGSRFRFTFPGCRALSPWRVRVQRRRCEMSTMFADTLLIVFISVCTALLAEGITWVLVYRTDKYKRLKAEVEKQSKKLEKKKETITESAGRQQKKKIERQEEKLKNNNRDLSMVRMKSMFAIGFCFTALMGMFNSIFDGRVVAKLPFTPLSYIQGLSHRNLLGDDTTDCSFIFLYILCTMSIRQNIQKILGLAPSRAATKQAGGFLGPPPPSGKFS
UniProt Q15363: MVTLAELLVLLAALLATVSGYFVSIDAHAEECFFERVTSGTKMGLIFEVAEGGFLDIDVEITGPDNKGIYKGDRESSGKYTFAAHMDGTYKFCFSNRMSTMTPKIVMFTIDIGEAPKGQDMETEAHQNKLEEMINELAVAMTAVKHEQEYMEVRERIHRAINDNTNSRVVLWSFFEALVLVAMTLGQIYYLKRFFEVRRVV
UniProt Q9H0V1: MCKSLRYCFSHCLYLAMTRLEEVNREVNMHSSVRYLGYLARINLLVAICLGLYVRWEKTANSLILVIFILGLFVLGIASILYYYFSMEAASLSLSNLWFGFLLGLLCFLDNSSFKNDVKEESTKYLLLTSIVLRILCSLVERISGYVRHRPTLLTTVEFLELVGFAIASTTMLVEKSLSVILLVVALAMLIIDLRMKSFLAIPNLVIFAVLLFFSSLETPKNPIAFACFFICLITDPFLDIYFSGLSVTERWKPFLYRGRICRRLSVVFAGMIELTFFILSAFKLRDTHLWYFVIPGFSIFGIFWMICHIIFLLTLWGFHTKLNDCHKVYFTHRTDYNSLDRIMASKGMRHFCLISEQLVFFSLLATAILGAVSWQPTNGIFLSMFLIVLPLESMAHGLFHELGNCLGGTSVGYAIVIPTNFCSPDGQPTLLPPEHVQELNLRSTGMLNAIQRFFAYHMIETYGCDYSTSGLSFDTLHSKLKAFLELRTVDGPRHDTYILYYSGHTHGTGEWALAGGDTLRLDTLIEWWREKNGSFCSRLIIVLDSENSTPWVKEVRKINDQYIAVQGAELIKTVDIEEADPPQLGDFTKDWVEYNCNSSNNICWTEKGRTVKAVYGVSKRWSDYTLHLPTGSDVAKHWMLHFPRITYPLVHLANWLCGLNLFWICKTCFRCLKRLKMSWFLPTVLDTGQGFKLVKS
UniProt P63313: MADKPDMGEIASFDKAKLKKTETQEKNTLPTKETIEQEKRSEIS
UniProt Q13445: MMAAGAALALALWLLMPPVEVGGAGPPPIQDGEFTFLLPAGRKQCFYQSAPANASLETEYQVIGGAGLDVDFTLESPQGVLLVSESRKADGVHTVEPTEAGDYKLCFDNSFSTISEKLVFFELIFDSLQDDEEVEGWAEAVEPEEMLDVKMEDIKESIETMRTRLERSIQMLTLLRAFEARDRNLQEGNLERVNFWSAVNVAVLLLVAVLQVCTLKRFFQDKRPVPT

compound: COc1cc(Nc2ncc3c(n2)-c2ccc(Cl)cc2C(c2c(F)cccc2OC)=NC3)ccc1C(=O)O [alisertib]; assay: log2 fold change, soluble protein after heating vs DMSO (PISA); higher = thermal stabilisation; K562 cells, 10 uM, 30 min; active = over 0.2 and 3.5 SD of the protein, either way, in both replicates (recomputed)
How it was run: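 K562 cells at 2×10^6 cells/mL were treated with 10 μM compound for 30 min. Aliquots were heated for 3 min across 48°C-58°C, pooled, and extracted in PBS with 0.5% NP-40 at 4°C; soluble protein was the supernatant after 21,000xg for 90 min. Soluble protein was quantified by TMTpro 16plex LC-MS/MS with channel sums equalised, and reported as log2 fold change in thermal stability against DMSO controls, with values from duplicates.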

log2 fold change, inactive:
TMEM245 (UniProt Q9H330) -0.153, TMEM167A (UniProt Q8TBQ9) 0.098, TMOD2 (UniProt Q9NZR1) -0.127, TMED4 (UniProt Q7Z7H5) -0.025, TMEM14C (UniProt Q9P0S9) 0.087, TLN2 (UniProt Q9Y4G6) 0.234, TMEM109 (UniProt Q9BVC6) -0.036, TM2D3 (UniProt Q9BRN9) -0.005, TMEM186 (UniProt Q96B77) -0.014, TMEM141 (UniProt Q96I45) 0.092, TMEM65 (UniProt Q6PI78) -0.142, TMEM87A (UniProt Q8NBN3) -0.02, TMEM33 (UniProt P57088) -0.046, TLN1 (UniProt Q9Y490) -0.06, TNFRSF10B (UniProt O14763) -0.219, TMEM160 (UniProt Q9NX00) -0.119, TM9SF3 (UniProt Q9HD45) -0.06, TMPO isoform 2 (UniProt P42167) 0, TMOD3 (UniProt Q9NYL9) -0.008, TMEM222 (UniProt Q9H0R3) -0.013, TMEM185B (UniProt Q9H7F4) -0.029, TMA16 (UniProt Q96EY4) -0.024, TMEM30A (UniProt Q9NV96) -0.048, TMEM68 (UniProt Q96MH6) -0.067, TMCO1 (UniProt Q9UM00) -0.036, TMED2 (UniProt Q15363) -0.033, TMX4 (UniProt Q9H1E5) -0.085, TMEM168 (UniProt Q9H0V1) 0.009, TMPO (UniProt P42166) -0.076, TMEM259 (UniProt Q4ZIN3) 0.494, TMSB10 (UniProt P63313) -0.027, TMEM248 (UniProt Q9NWD8) -0.015, TMED3 (UniProt Q9Y3Q3) -0.074, TMEM209 (UniProt Q96SK2) -0.032, TMEM230 isoform 2 (UniProt Q96A57) -0.091, TMED1 (UniProt Q13445) -0.063, TMPO (UniProt P42167) 0.114, TMEM62 (UniProt Q0P6H9) 0.18, TMEM11 (UniProt P17152) -0.116
